Measured values taken from patent US20080318236.

System: T1, FANCD2-L (monoubiquitinated xFANCD2, K563) (Xenopus laevis)
T1 sequence (limits assumed): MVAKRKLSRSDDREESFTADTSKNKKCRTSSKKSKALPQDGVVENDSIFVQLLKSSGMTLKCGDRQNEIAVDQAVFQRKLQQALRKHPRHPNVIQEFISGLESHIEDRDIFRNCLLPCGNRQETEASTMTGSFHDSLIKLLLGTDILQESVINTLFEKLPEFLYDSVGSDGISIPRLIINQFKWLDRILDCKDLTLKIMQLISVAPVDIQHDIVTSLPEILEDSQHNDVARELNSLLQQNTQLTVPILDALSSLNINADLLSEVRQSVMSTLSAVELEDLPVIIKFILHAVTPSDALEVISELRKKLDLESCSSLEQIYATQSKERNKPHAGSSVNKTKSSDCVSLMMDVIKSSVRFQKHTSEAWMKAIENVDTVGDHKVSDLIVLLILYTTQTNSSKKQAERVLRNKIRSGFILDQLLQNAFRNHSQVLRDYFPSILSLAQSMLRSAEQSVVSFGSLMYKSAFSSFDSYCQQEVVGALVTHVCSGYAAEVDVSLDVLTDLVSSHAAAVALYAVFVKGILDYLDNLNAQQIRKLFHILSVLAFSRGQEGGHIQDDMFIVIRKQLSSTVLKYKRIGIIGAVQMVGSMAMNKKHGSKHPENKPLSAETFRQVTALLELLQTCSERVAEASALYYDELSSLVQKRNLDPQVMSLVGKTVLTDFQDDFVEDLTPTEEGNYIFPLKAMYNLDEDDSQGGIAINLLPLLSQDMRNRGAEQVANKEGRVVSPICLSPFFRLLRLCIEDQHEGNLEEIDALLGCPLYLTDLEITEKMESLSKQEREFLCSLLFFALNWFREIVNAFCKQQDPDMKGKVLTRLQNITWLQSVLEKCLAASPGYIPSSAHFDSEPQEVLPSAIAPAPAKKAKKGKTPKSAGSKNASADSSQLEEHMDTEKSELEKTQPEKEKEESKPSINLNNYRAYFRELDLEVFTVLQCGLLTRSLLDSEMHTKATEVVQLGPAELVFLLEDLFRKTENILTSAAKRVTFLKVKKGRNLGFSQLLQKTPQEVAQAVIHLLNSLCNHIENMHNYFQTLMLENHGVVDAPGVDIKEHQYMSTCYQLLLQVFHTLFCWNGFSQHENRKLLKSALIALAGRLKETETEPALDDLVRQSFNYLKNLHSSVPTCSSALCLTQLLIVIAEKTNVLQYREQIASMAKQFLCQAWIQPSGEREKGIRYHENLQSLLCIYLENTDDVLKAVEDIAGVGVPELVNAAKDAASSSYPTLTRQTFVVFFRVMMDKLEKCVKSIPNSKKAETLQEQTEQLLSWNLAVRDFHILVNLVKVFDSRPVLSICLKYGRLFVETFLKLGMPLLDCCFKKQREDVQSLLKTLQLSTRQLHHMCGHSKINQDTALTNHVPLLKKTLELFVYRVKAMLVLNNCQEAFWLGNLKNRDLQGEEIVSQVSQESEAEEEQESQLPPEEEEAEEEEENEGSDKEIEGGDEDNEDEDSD
Experiment: pull-down
Settings: Xenopus egg extract, protein in an extract, label: biotin (streptavidin magnetic beads)

Row | Sequence | binding result (3'-biotin on strand 5 (SEQ 11), bound amount not linear with DNA) | binding result (3'-biotin on strand 3 (SEQ 9), similar amount to dsDNA68 at 1:1 molar ratio, folded or branched DNA)
1 | GGTTGACGTTCTAGTGTGACCGCAATACGGATAAGGGCACTATGGCTCCACTGATGTCGTAAGCATCC (double strand) [dsDNA68] | binds | –
2 | GGTTGACGTTCTAGTGTGACCGCAATACGGATAAGGGCTGAGCACGCCGACGAACATAC / GTATGTTCGTCGGCGTGCTCAGCCCTTATCCCAGAATGCACCAACAGTTCCTCAAGATAGAGACT / GAGTCTCTATCTTGAGGAACTGTTGGTGCATTCTGGGATAAGGGCACTATGGCTCCACTGATGTCGTAAGCATCC / GGATGCTTACGACATCAGTGGAGCCATAGTGCCCTTATCCGTATTGCGGTCACACTAGAACGTCAACC [HJ-DNA68] | – | binds

For at least one entry, the source does not settle the construct or the ends of the probe. At least one result comes from cells or an extract, where the contact may be indirect. Tags and fusion partners may be left off the protein sequences shown.
